SMILES strings stand for the structures. The list is a part of this screen's results and no random one: it is rich in T/C values a quarter to a half above the control, in often repeated tests (any T/C) and in doses without a T/C. Other doses and runs of a compound stand elsewhere. T/C gives the treated animals as a percentage of the vehicle group. Some doses have a count of surviving animals in place of a T/C: the source files T/C as zero there, which appears to mark a toxic dose or a test without result, not a measured value. Some doses without a T/C left all or most animals alive at the check, yet need not have been tolerated: survival well below the control is almost never listed, so the zero probably covers shortened survival too. Counts of survivors are from the toxicity check (mostly the fifth day) where no day follows; animals may have died later. Schedules are NCI's codes, taken here to give the interval after Q, in days (D) or hours (H), and the number of doses after X. Some schedules carry Z or #; the key to these is not given. Some entries were tested several times; the results are listed from low to high. For survival time, the PubChem record calls one and a half times the control and up active, and a quarter to a half above the control has no call in these data; cut-offs in other NCI protocols can differ.

The assay relates to L1210 leukemia ip in BDF1 mice, survival T/C. The assay is described as follows: NCI In Vivo Anticancer Drug Screen. Data for tumor model L1210 Leukemia (intraperitoneal) in B6D2F1 (BDF1) mice. To be noted: higher T/C = longer survival.
Where [1] appears, read: T/C endpoint: mean survival time, dose: 100.0 mg/kg/injection, schedule: Q01DX009 (ip), vehicle: saline.
Where [2] appears, read: T/C endpoint: mean survival time, dose: 200.0 mg/kg/injection, schedule: Q04DX003 (ip), vehicle: saline.
Setting [3] is: T/C endpoint: mean survival time, dose: 400.0 mg/kg/injection, schedule: Q04DX003 (ip), vehicle: saline.
Where [4] appears, read: T/C endpoint: mean survival time, dose: 400.0 mg/kg/injection, schedule: Q01DX009 (ip), vehicle: saline with Tween-80.
The mark [5] stands for this setting: T/C endpoint: mean survival time, dose: 100.0 mg/kg/injection, schedule: Q01DX009 (ip), vehicle: saline with Tween-80.
[6] abbreviates: T/C endpoint: mean survival time, dose: 200.0 mg/kg/injection, schedule: Q01DX009 (ip), vehicle: saline with Tween-80.
Where [7] appears, read: T/C endpoint: mean survival time, dose: 400.0 mg/kg/injection, schedule: Q04DX003 (ip), vehicle: saline with Tween-80.

Take `O=C(Nc1ccc(C2=NCCN2)cc1)Nc1cccc(NC(=S)Nc2ccc(C3=NCCN3)cc2)c1`: the T/C (T/C endpoint: mean survival time, dose: 15.0 mg/kg/injection, schedule: Q01DX Z (ip), vehicle: saline) is 140 % of control. The survivor count is reported as 5 of 6 (T/C endpoint: mean survival time, dose: 60.0 mg/kg/injection, schedule: Q01DX Z (ip), vehicle: saline) and 0 of 6 (T/C endpoint: mean survival time, dose: 120.0 mg/kg/injection, schedule: Q01DX Z (ip), vehicle: saline).

As to `O=C(O)c1ccc(Br)cc1.[Ni]`, the survivor count (T/C endpoint: mean survival time, dose: 100.0 mg/kg/injection, schedule: Q04DX002 (ip), vehicle: gum acacia) was 1 of 3 and 3 of 3; the survivor count (T/C endpoint: mean survival time, dose: 200.0 mg/kg/injection, schedule: Q04DX002 (ip), vehicle: gum acacia) was 0 of 3; the survivor count (T/C endpoint: mean survival time, dose: 400.0 mg/kg/injection, schedule: Q04DX002 (ip), vehicle: gum acacia) is recorded as 0 of 3. With `COc1ccc(F)cc1CC#N`, for the setting “T/C endpoint: mean survival time, dose: 400.0 mg/kg/injection, schedule: Q04DX002 (ip), vehicle: Klucel (hydroxypropylcellulose) (HPC)”, the survivor count is 1 of 3. For the molecule `CC[n+]1ccc2cc(OC)c(OC)cc2c1Cc1ccc(OC)c(OC)c1`, the survivor count is, setting by setting: under setting [1], 0 of 6; under setting [2], 2 of 6; under setting [3], 0 of 6. For the molecule `Nc1ncc(C=Nc2ccc(C(=O)O)cc2)c(N)n1`, the survivor count (T/C endpoint: mean survival time, dose: 100.0 mg/kg/injection, schedule: Q01DX001 (ip), vehicle: carboxymethylcellulose (CMC)) is 6 of 6. Turning to `C/C(CC(O)(C(F)(F)Cl)C(F)(F)Cl)=N\O`, the survivor count under setting [4] is listed as 3 of 6. As to `CN1CCCCCC1`, where the note is “T/C endpoint: mean survival time, dose: 200.0 mg/kg/injection, schedule: Q01DX009 (ip), vehicle: acetone”, the survivor count was 0 of 6.

Consider `COC(=O)c1ccccc1N=NN(C)C`, for which the survivor count (T/C endpoint: mean survival time, dose: 400.0 mg/kg/injection, schedule: Q01DX001 (ip), vehicle: carboxymethylcellulose (CMC)) is on record as 0 of 4 and the survivor count (T/C endpoint: median survival time, dose: 500.0 mg/kg/injection, schedule: Q01DX001 (ip), vehicle: steroid suspending solution) is recorded as 0 of 8. In the case of `C[N+](C)(C)CCS(=O)(=O)c1ccc(Cl)cc1`, the survivor count runs as follows: (T/C endpoint: mean survival time, dose: 200.0 mg/kg/injection, schedule: Q04DX002 (ip), vehicle: saline) 0 of 3; (T/C endpoint: mean survival time, dose: 400.0 mg/kg/injection, schedule: Q04DX002 (ip), vehicle: saline) 0 of 3. Turning to `CCC[CH2][Sn]1([CH2]CCC)[CH]=CCC=[C]1C`, the survivor count by setting is: (T/C endpoint: mean survival time, dose: 50.0 mg/kg/injection, schedule: Q01DX009 (ip), vehicle: saline with Tween-80) 3 of 6; under setting [5], 0 of 6; under setting [6], 0 of 6; under setting [4], 0 of 6. On to `O=S1(=O)C2CCC(C2)C1Cl` (configuration not stated), for which the survivor count under setting [5] is 2 of 6. As for `CN(C)/C=N\c1ncnc2c1ccn2C1OC(CO)C(O)C1O` (configuration not stated), the survivor count (T/C endpoint: mean survival time, dose: 12.5 mg/kg/injection, schedule: Q01DX005 (ip), vehicle: saline) is 6 of 6; the survivor count (T/C endpoint: mean survival time, dose: 12.5 mg/kg/injection, schedule: Q01DX009 (ip), vehicle: saline) is listed as 4 of 6; the survivor count (T/C endpoint: mean survival time, dose: 25.0 mg/kg/injection, schedule: Q01DX005 (ip), vehicle: saline) was 3 of 6; the survivor count (T/C endpoint: mean survival time, dose: 25.0 mg/kg/injection, schedule: Q01DX009 (ip), vehicle: saline) was 1 of 6; the survivor count (T/C endpoint: mean survival time, dose: 50.0 mg/kg/injection, schedule: Q01DX005 (ip), vehicle: saline) is reported as 0 of 6; the survivor count (T/C endpoint: mean survival time, dose: 50.0 mg/kg/injection, schedule: Q01DX009 (ip), vehicle: saline) is reported as 1 of 6. As to `C[n+]1cc(N)cc2ccccc21`, the survivor count is reported as 0 of 4 (T/C endpoint: mean survival time, dose: 100.0 mg/kg/injection, schedule: Q01DX001 (ip), vehicle: other); 0 of 4 (T/C endpoint: mean survival time, dose: 200.0 mg/kg/injection, schedule: Q01DX001 (ip), vehicle: other); 0 of 4 (T/C endpoint: mean survival time, dose: 400.0 mg/kg/injection, schedule: Q01DX001 (ip), vehicle: other). For the molecule `CC1(O)C2CC3CC(C2)CC1C3` (configuration not stated), under “T/C endpoint: mean survival time, dose: 100.0 mg/kg/injection, schedule: Q04DX002 (ip), vehicle: Klucel (hydroxypropylcellulose) (HPC)”, the survivor count is 3 of 3. As to `CCC(C)n1ncc2c(N(C)C)ncnc21` (configuration not stated), the survivor count runs as follows: (T/C endpoint: mean survival time, dose: 200.0 mg/kg/injection, schedule: Q01DX009 (ip), vehicle: saline) 6 of 6; (T/C endpoint: mean survival time, dose: 400.0 mg/kg/injection, schedule: Q01DX001 (ip), vehicle: saline) 1 of 6. For the molecule `COc1ccccc1/C=N\N=C(N/N=C/c1ccccc1OC)N/N=C/c1ccccc1OC`, the survivor count reads like this: (T/C endpoint: mean survival time, dose: 240.0 mg/kg/injection, schedule: Q01DX Z (oral), vehicle: methylcellulose (MC)) 5 of 6; (T/C endpoint: mean survival time, dose: 720.0 mg/kg/injection, schedule: Q01DX Z (ip), vehicle: methylcellulose (MC)) 3 of 6; (T/C endpoint: mean survival time, dose: 960.0 mg/kg/injection, schedule: Q01DX Z (ip), vehicle: methylcellulose (MC)) 5 of 6.

With `C=CCN(Cc1cnc2nc(N)nc(N)c2n1)c1ccc(C(=O)NC(CCC(=O)O)C(=O)O)cc1` (configuration not stated), the T/C (T/C endpoint: mean survival time, dose: 12.0 mg/kg/injection, schedule: Q01DX009 (ip), vehicle: sodium bicarbonate) is 133 % of control. `CCOC(=O)CC(=O)c1ccc(C(=O)CC(=O)O)cc1` (tested in a mixture with another compound): the survivor count under setting [7] is 6 of 6. For the molecule `CC(=O)OC1(C)CC(C)C(O)C(C(O)CC2CC(=O)NC(=O)C2)C1` (configuration not stated), where the note is “T/C endpoint: mean survival time, dose: 40.0 mg/kg/injection, schedule: Q01DX001 (ip), vehicle: water”, the survivor count is 2 of 4. For the molecule `CC1=C2CCC(C)C23C2C(=O)OC(=O)C2C1C1C(=O)OC(=O)C13` (configuration not stated), the survivor count is recorded as 3 of 6 (T/C endpoint: mean survival time, dose: 100.0 mg/kg/injection, schedule: Q04DX003 (ip), vehicle: saline); 1 of 6 under setting [2]; 0 of 6 under setting [3]. As for `C=CCn1c2c(c3ccccc31)CCC2`, the survivor count under setting [6] is reported as 1 of 3. On to `COc1cccc(/C=N\N=C\c2cccc(OC)c2OC)c1OC`, for which, under setting [1], the T/C is 126 % of control.

As for `CN(CC(O)CN)c1ccc(Cl)cc1` (configuration not stated), the survivor count is recorded as 2 of 6 (T/C endpoint: mean survival time, dose: 200.0 mg/kg/injection, schedule: Q01DX001 (ip), vehicle: saline with Tween-80) and 0 of 6 (T/C endpoint: mean survival time, dose: 400.0 mg/kg/injection, schedule: Q01DX001 (ip), vehicle: saline with Tween-80).

In the case of `C=C(C)C1(CCCC)C(=O)NC(=S)NC1=O`, the survivor count (T/C endpoint: mean survival time, dose: 300.0 mg/kg/injection, schedule: Q01DX001 (ip), vehicle: saline) is 1 of 6. `COc1ccc(C)cc1NC(=O)Sc1ccc(Cl)cc1`: under setting [6], the survivor count is listed as 1 of 3.

On to `CC(CSc1ccccc1)NCCO` (configuration not stated), for which the survivor count (T/C endpoint: mean survival time, dose: 200.0 mg/kg/injection, schedule: Q04DX003 (ip), vehicle: saline with Tween-80) is reported as 0 of 6 and the survivor count under setting [7] is on record as 0 of 6. Consider `CCC(C)C1(C)OC1C(=O)OC` (configuration not stated), for which, under setting [4], the survivor count is on record as 6 of 6.

(Values after PubChem BioAssay AID248 (DTP/NCI, 2004).)
